No constants are given. Whether binding was seen depends on the method and setting. In cells and extracts the contact can be indirect. Some entries that bind do so weakly or less than the wild type.
Biological target: T1, serum response factor (rat (endogenous in PAC1)) (UniProt D3ZHH8)
T1 sequence: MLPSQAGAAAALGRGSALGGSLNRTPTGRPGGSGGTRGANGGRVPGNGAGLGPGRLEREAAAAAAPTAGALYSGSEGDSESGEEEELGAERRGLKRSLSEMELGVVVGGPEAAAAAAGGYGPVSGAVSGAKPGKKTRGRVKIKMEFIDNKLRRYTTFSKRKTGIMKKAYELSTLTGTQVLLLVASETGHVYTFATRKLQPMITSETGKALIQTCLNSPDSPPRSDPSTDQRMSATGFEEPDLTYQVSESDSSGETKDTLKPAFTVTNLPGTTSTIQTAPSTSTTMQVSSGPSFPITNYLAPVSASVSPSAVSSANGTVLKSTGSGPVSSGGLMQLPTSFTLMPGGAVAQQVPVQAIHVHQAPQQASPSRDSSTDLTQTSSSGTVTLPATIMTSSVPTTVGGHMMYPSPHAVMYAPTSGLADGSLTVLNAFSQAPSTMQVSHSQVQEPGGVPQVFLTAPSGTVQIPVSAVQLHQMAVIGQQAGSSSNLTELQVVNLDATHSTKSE
Experiment: co-IP; immunoprecipitation with SRF antibody from nuclear protein extract (NPE) of PAC1 cells; 400 μg protein, 4 μg antibody, overnight at 4°C; western blot with SM22 antibody

B1: SM22α (protein, UniProt P31232 1-201)
chain: MANKGPSYGMSREVQSKIEKKYDEELEERLVEWIVMQCGPDVGRPDRGRLGFQVWLKNGVILSKLVNSLYPEGSKPVKVPENPPSMVFKQMEQVAQFLKAAEDYGVTKTDMFQTVDLFEGKDMAAVQRTVMALGSLAVTKNDGHYRGDPNWFMKKAQEHKREFTDSQLQEGKHVIGLQMGSNRGASQAGMTGYGRPRQIIS
For B1, the binding was “binds”.
